Measurements reported in doi:10.1101/354316.
Results are given in words; binding and its absence hold for the method and conditions named. In cells and extracts the contact can be indirect. A yes stands for co-enrichment or nearness to the bait. Other partners may have been found.

Sequences of proteins named here, by UniProt entry; tags and fusion partners are left off.
UniProt Q01968: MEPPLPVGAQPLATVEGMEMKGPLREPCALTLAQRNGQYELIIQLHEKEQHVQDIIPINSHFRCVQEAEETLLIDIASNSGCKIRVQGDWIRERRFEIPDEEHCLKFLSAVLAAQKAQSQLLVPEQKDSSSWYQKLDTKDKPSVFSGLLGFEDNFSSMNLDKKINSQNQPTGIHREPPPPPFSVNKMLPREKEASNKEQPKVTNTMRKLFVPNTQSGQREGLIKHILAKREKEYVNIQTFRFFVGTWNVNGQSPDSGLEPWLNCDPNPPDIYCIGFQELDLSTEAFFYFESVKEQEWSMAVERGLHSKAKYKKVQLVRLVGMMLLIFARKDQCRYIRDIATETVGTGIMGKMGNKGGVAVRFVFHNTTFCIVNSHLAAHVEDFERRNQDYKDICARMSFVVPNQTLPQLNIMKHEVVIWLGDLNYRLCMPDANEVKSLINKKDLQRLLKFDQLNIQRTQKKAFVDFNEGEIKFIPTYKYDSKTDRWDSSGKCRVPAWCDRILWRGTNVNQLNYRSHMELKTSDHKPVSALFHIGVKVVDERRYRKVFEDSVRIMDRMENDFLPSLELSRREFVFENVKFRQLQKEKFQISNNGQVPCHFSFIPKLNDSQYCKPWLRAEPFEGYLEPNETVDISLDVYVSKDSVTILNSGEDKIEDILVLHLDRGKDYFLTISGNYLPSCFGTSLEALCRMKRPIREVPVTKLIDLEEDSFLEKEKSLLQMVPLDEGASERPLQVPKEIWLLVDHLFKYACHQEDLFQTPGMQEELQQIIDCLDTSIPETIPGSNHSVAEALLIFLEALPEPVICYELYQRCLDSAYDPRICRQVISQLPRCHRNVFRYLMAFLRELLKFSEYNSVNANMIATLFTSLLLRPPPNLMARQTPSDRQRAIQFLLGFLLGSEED
UniProt O15085: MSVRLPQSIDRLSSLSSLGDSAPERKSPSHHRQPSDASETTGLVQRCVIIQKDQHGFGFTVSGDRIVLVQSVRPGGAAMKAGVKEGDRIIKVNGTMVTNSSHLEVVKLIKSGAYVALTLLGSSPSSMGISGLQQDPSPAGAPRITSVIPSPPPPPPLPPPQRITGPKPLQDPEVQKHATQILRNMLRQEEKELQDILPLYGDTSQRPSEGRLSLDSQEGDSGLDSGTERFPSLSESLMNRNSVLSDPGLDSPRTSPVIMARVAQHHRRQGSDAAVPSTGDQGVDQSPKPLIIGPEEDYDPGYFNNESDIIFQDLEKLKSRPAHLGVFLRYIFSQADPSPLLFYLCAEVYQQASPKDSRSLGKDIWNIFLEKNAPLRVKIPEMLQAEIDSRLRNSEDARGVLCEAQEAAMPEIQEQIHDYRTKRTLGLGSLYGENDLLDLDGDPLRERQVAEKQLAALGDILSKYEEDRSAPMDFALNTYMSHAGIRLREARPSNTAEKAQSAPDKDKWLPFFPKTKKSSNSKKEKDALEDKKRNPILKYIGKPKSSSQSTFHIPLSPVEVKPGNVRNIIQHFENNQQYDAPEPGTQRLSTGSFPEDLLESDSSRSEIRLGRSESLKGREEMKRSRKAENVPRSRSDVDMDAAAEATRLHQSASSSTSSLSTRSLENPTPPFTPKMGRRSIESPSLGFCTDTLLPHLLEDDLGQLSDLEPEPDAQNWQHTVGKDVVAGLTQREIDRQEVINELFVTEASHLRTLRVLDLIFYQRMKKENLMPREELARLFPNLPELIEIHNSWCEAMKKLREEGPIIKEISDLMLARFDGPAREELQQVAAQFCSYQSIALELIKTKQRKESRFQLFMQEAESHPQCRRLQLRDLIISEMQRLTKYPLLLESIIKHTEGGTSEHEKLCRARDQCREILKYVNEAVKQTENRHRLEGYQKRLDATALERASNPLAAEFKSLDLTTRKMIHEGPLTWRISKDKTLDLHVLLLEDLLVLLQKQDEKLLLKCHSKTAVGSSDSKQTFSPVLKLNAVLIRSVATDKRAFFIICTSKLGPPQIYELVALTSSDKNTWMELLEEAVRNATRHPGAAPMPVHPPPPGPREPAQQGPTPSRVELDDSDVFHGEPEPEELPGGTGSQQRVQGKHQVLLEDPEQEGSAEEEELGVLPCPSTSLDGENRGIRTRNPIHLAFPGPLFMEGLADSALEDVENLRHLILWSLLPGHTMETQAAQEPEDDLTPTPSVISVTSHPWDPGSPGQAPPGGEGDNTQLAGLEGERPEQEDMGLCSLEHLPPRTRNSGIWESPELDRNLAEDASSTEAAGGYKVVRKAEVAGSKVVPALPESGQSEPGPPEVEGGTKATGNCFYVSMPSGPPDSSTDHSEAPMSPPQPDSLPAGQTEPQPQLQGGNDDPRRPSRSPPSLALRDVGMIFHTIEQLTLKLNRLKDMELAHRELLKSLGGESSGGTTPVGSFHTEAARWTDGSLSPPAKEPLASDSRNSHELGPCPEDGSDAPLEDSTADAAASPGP
UniProt Q9NZN5: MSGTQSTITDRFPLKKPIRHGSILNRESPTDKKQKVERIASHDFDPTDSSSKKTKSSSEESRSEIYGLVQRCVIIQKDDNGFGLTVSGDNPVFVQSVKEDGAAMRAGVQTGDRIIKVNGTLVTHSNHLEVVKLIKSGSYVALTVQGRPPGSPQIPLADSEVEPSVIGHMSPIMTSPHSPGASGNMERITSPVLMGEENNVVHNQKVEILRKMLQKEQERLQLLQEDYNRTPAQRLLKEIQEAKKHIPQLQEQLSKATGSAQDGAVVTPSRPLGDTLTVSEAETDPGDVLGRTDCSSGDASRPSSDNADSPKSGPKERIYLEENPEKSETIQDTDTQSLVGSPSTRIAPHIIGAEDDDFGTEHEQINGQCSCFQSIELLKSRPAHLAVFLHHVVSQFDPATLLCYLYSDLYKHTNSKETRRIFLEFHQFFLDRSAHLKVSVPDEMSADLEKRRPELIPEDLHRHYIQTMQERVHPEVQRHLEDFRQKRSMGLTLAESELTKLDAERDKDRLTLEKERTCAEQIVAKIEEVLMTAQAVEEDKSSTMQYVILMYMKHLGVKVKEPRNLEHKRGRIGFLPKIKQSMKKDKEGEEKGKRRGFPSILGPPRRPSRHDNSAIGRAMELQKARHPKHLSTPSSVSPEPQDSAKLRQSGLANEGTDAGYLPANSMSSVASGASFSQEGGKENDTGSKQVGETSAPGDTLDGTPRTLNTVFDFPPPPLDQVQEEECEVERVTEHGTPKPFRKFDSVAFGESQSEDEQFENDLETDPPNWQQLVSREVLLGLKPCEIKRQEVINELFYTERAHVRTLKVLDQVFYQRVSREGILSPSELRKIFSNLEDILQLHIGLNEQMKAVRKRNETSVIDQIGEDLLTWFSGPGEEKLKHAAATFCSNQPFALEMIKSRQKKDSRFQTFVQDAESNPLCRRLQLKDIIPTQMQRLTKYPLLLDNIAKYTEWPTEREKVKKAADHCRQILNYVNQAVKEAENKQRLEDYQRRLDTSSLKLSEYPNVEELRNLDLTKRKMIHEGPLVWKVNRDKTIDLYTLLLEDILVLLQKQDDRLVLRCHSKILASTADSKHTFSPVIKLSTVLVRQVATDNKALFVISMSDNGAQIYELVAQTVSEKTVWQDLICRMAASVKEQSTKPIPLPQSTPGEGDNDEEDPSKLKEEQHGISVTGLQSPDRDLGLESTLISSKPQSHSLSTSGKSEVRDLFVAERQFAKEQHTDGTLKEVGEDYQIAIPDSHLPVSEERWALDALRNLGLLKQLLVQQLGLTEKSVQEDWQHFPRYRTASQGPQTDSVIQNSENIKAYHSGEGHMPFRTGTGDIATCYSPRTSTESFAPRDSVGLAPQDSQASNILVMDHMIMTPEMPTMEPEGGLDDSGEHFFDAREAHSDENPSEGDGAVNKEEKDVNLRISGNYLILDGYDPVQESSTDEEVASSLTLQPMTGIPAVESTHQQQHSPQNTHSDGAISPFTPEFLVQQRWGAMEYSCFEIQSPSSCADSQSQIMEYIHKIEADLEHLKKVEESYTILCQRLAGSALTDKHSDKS
UniProt P32019: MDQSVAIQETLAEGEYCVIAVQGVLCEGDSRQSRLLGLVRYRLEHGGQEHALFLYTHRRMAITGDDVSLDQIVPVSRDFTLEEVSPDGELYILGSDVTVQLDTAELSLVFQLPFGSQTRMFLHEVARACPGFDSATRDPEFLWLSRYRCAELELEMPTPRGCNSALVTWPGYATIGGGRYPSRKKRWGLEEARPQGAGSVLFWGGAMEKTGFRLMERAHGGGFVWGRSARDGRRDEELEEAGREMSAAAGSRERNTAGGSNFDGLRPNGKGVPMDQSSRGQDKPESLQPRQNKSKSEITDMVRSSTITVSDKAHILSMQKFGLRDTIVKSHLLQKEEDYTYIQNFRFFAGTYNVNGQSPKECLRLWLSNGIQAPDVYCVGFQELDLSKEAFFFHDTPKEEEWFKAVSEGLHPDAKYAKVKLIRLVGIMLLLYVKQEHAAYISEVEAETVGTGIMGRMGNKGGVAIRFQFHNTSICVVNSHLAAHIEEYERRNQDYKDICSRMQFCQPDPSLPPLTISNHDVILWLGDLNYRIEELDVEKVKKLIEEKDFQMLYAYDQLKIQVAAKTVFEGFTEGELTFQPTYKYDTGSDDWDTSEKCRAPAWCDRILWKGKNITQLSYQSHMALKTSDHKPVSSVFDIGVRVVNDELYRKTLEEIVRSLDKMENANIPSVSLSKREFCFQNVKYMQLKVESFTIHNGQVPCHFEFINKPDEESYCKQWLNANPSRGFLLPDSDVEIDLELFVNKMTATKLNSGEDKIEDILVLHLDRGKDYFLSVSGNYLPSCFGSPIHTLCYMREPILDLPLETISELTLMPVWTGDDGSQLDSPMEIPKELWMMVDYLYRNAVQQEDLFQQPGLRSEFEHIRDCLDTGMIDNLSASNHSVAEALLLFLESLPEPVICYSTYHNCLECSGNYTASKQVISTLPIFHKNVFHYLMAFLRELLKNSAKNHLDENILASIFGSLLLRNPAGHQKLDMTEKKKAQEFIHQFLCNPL
UniProt Q96PX9: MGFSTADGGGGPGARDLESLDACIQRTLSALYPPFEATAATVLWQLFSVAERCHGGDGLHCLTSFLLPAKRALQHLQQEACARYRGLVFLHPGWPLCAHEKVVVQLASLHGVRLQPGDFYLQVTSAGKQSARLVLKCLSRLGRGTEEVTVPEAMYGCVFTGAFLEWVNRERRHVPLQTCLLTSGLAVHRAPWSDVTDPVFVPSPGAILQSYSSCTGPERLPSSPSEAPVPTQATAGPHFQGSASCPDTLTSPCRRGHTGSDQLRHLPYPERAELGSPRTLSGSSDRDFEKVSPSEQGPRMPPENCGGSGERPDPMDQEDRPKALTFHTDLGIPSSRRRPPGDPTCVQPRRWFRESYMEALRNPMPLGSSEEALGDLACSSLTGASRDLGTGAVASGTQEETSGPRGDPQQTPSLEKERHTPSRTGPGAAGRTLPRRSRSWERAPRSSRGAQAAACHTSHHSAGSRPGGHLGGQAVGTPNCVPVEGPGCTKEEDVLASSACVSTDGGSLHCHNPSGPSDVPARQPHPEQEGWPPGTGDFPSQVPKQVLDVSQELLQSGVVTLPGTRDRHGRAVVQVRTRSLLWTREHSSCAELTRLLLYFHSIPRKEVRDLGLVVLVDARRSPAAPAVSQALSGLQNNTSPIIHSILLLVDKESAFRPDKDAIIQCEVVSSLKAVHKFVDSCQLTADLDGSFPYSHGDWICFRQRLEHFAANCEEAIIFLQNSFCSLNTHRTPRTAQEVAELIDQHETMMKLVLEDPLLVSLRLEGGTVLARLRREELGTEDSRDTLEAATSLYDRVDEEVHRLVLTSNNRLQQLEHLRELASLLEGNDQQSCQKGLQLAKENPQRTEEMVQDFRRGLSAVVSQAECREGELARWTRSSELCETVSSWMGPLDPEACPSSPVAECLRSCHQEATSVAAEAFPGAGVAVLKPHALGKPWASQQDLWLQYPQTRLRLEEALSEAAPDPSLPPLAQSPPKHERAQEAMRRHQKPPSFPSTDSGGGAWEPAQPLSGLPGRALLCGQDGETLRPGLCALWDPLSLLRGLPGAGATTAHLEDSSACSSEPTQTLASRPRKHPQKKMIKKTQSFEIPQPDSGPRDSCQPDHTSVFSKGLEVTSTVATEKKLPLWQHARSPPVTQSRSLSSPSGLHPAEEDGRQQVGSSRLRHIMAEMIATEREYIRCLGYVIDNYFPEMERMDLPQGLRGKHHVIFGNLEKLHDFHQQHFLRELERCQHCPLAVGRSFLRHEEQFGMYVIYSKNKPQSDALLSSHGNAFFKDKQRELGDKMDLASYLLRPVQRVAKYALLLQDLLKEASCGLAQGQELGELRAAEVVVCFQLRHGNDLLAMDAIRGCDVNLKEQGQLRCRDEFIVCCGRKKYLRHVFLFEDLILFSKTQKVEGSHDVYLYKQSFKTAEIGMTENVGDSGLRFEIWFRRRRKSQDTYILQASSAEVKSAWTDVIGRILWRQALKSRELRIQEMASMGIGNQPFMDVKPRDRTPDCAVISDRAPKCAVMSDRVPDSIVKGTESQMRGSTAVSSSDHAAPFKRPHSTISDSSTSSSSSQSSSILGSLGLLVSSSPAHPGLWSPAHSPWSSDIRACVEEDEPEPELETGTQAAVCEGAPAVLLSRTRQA

Experiments:
Experiment in all cases: affinity purification with mass spectrometry
[1] = target: OCRL (not stated (library cDNAs: human, mouse, rat or chimpanzee; Table S1)) (UniProt Q01968)
[2] = target: ARHGEF11 (interactome screen) (human) (UniProt O15085)
[3] = target: ARHGEF12 (interactome screen) (human) (UniProt Q9NZN5)
[4] = target: T1, ARHGEF39 (not stated (library cDNAs: human, mouse, rat or chimpanzee; Table S1)) (UniProt Q8N4T4)
T1 sequence: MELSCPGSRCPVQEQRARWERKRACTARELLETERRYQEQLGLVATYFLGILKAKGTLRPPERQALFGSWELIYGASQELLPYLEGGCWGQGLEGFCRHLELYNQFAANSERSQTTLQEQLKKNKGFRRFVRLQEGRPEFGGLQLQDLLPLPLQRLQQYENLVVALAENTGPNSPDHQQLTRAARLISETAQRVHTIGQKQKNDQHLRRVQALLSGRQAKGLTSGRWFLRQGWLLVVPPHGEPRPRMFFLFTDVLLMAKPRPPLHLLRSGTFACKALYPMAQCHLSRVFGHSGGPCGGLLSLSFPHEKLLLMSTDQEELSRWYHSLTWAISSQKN

[5] = target: T2, ARHGAP44 (not stated (library cDNAs: human, mouse, rat or chimpanzee; Table S1)) (UniProt Q17R89)
T2 sequence: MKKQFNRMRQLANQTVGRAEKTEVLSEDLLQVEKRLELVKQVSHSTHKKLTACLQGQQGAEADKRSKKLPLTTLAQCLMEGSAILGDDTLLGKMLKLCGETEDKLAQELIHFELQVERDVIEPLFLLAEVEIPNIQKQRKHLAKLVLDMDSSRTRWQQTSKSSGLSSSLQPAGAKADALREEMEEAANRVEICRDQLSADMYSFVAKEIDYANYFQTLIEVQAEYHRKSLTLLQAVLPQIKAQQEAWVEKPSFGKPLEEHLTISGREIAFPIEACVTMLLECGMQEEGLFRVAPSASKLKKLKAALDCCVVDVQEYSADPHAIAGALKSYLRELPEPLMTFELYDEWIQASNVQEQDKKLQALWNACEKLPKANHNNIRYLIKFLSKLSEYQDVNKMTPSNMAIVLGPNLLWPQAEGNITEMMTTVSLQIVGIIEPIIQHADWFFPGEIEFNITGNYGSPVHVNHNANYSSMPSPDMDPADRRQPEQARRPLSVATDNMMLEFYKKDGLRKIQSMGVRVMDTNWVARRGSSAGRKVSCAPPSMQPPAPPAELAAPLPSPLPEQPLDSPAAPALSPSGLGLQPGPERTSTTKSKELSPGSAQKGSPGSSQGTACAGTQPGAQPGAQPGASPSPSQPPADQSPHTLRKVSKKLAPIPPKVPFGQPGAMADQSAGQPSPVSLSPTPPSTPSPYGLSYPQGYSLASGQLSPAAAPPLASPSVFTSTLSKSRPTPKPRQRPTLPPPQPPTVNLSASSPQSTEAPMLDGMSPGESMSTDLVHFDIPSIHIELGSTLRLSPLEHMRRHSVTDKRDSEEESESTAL

Molecule: INPP5B (from UniProt P32019 1-993)
- binding [1]: binds

Molecule: PLEKHG4B (interactome screen) (from UniProt Q96PX9 1-1627)
- binding [2]: binds
- binding [3]: binds

B1: BCR (protein, UniProt P11274 1-1271)
chain: MVDPVGFAEAWKAQFPDSEPPRMELRSVGDIEQELERCKASIRRLEQEVNQERFRMIYLQTLLAKEKKSYDRQRWGFRRAAQAPDGASEPRASASRPQPAPADGADPPPAEEPEARPDGEGSPGKARPGTARRPGAAASGERDDRGPPASVAALRSNFERIRKGHGQPGADAEKPFYVNVEFHHERGLVKVNDKEVSDRISSLGSQAMQMERKKSQHGAGSSVGDASRPPYRGRSSESSCGVDGDYEDAELNPRFLKDNLIDANGGSRPPWPPLEYQPYQSIYVGGMMEGEGKGPLLRSQSTSEQEKRLTWPRRSYSPRSFEDCGGGYTPDCSSNENLTSSEEDFSSGQSSRVSPSPTTYRMFRDKSRSPSQNSQQSFDSSSPPTPQCHKRHRHCPVVVSEATIVGVRKTGQIWPNDGEGAFHGDADGSFGTPPGYGCAADRAEEQRRHQDGLPYIDDSPSSSPHLSSKGRGSRDALVSGALESTKASELDLEKGLEMRKWVLSGILASEETYLSHLEALLLPMKPLKAAATTSQPVLTSQQIETIFFKVPELYEIHKEFYDGLFPRVQQWSHQQRVGDLFQKLASQLGVYRAFVDNYGVAMEMAEKCCQANAQFAEISENLRARSNKDAKDPTTKNSLETLLYKPVDRVTRSTLVLHDLLKHTPASHPDHPLLQDALRISQNFLSSINEEITPRRQSMTVKKGEHRQLLKDSFMVELVEGARKLRHVFLFTDLLLCTKLKKQSGGKTQQYDCKWYIPLTDLSFQMVDELEAVPNIPLVPDEELDALKIKISQIKNDIQREKRANKGSKATERLKKKLSEQESLLLLMSPSMAFRVHSRNGKSYTFLISSDYERAEWRENIREQQKKCFRSFSLTSVELQMLTNSCVKLQTVHSIPLTINKEDDESPGLYGFLNVIVHSATGFKQSSNLYCTLEVDSFGYFVNKAKTRVYRDTAEPNWNEEFEIELEGSQTLRILCYEKCYNKTKIPKEDGESTDRLMGKGQVQLDPQALQDRDWQRTVIAMNGIEVKLSVKFNSREFSLKRMPSRKQTGVFGVKIAVVTKRERSKVPYIVRQCVEEIERRGMEEVGIYRVSGVATDIQALKAAFDVNNKDVSVMMSEMDVNAIAGTLKLYFRELPEPLFTDEFYPNFAEGIALSDPVAKESCMLNLLLSLPEANLLTFLFLLDHLKRVAEKEAVNKMSLHNLATVFGPTLLRPSEKESKLPANPSQPITMTDSWSLEVMSQVQVLLYFLQLEAIPAPDSKRQSILFSTEV
- binding [4]: binds

B2: ARHGAP17 (protein, UniProt Q68EM7 1-881)
chain: MKKQFNRMKQLANQTVGRAEKTEVLSEDLLQIERRLDTVRSICHHSHKRLVACFQGQHGTDAERRHKKLPLTALAQNMQEASTQLEDSLLGKMLETCGDAENQLALELSQHEVFVEKEIVDPLYGIAEVEIPNIQKQRKQLARLVLDWDSVRARWNQAHKSSGTNFQGLPSKIDTLKEEMDEAGNKVEQCKDQLAADMYNFMAKEGEYGKFFVTLLEAQADYHRKALAVLEKTLPEMRAHQDKWAEKPAFGTPLEEHLKRSGREIALPIEACVMLLLETGMKEEGLFRIGAGASKLKKLKAALDCSTSHLDEFYSDPHAVAGALKSYLRELPEPLMTFNLYEEWTQVASVQDQDKKLQDLWRTCQKLPPQNFVNFRYLIKFLAKLAQTSDVNKMTPSNIAIVLGPNLLWARNEGTLAEMAAATSVHVVAVIEPIIQHADWFFPEEVEFNVSEAFVPLTTPSSNHSFHTGNDSDSGTLERKRPASMAVMEGDLVKKESFGVKLMDFQAHRRGGTLNRKHISPAFQPPLPPTDGSTVVPAGPEPPPQSSRAESSSGGGTVPSSAGILEQGPSPGDGSPPKPKDPVSAAVPAPGRNNSQIASGQNQPQAAAGSHQLSMGQPHNAAGPSPHTLRRAVKKPAPAPPKPGNPPPGHPGGQSSSGTSQHPPSLSPKPPTRSPSPPTQHTGQPPGQPSAPSQLSAPRRYSSSLSPIQAPNHPPPQPPTQATPLMHTKPNSQGPPNPMALPSEHGLEQPSHTPPQTPTPPSTPPLGKQNPSLPAPQTLAGGNPETAQPHAGTLPRPRPVPKPRNRPSVPPPPQPPGVHSAGDSSLTNTAPTASKIVTDSNSRVSEPHRSIFPEMHSDSASKDVPGRILLDIDNDTESTAL
- binding [5]: binds
